These are yes or no findings as the source states them, for the method shown. In cells and extracts the contact can be indirect. These calls come from enrichment with a bait or labelling near it, and not all partners need be listed.
Biological target: T1, BCL9 (full-length, control tumors) (mouse (endogenous in mouse tumors)) (UniProt Q9D219)
T1 sequence: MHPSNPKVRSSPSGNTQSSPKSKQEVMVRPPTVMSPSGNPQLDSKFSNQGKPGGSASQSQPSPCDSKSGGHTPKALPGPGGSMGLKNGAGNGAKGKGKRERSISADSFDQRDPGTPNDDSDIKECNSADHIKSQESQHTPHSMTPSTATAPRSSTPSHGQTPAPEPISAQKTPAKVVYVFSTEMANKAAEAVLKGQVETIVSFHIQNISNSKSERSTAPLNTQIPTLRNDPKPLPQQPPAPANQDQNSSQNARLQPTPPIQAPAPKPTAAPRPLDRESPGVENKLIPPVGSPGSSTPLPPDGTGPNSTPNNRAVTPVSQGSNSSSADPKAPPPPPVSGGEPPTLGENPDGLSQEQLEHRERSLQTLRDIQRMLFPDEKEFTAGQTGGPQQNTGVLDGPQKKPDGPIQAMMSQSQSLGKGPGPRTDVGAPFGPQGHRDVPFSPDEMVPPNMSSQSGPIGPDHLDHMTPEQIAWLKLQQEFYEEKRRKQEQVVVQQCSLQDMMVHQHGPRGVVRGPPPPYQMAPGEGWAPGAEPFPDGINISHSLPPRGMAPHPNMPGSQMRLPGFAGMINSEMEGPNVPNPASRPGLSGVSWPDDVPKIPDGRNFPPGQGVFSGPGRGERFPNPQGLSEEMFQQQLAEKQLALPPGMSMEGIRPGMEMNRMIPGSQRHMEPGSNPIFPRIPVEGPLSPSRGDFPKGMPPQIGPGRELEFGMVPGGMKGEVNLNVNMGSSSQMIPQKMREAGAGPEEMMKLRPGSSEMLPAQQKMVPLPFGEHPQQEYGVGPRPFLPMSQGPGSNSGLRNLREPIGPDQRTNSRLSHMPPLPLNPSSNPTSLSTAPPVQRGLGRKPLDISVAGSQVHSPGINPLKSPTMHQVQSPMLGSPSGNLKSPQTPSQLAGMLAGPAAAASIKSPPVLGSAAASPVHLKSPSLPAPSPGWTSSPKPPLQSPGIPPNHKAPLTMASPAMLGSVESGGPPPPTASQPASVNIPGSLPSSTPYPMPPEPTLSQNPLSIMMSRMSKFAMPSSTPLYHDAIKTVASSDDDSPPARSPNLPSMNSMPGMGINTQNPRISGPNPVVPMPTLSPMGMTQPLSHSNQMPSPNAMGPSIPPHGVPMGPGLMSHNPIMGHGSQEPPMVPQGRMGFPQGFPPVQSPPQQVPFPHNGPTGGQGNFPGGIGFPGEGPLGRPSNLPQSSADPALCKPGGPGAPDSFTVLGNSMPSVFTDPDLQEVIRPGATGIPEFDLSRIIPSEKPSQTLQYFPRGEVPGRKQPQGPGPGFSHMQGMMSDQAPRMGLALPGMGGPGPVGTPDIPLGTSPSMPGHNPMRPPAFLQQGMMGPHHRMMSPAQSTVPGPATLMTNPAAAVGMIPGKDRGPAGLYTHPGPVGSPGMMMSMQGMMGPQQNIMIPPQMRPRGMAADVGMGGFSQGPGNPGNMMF
Test: affinity purification with mass spectrometry

B1: TBX3 (endogenous, mouse tumors) (protein, UniProt P70324 1-741)
chain: MSLSMRDPVIPGTSMAYHPFLPHRAPDFAMSAVLGHQPPFFPALTLPPNGAAALSLPGALAKPIMDQLVGAAETGIPFSSLGPQAHLRPLKTMEPEEDVEDDPKVHLEAKELWDQFHKRGTEMVITKSGRRMFPPFKVRCSGLDKKAKYILLMDIIAADDCRYKFHNSRWMVAGKADPEMPKRMYIHPDSPATGEQWMSKVVTFHKLKLTNNISDKHGFTLAFPSDHATWQGNYSFGTQTILNSMHKYQPRFHIVRANDILKLPYSTFRTYLFPETEFIAVTAYQNDKITQLKIDNNPFAKGFRDTGNGRREKRKQLTLQSMRVFEERHKKETSDESSSEQAAFNCFAQASSPAVSIVGTSNLKDLCPSEAESDAEAESKEEHGPEACDAAKISTTTAEEPGRDKGSPATRAQLFPAEPSRARDTARLDKASPDSRHSPATISSSTRVPGADERRSPGREGPVATKVDEARAIPAKDAFAPLSVQTDATAHLAQGPLPGLGFAPGLAGQQFFNGHPLFLHPGQFAMGGAFSSMAAGMGPLLATVSGASTGVSGLESTAMASAAAAQGLSGASAATLPFHLQQHVLASQGLAMSPFGSLFPYPYTYMAAAAAASTAAASSSVHRHPFLNLNSMRPRLRYSPYSIPVPVPDSSSLLATALPSMASAAGPLDGKAAALAASPASVAVDSGSELNSRSSTLSSGSVSLSPKLCSEKEAATSELQSIQRLVSGLEAKPDRSCSGSP
binding: binds

Reference: paper doi:10.1101/2020.04.22.053561
